These are yes or no findings as the source states them, for the method shown. Binding seen in cells or lysates may run through a third protein. Some entries that bind do so weakly or less than the wild type.
How the values were obtained:
[1] = molecular target: precursor N-cadherin (proN-cadherin) (human (endogenous in U251)) (UniProt P19022); assay: co-IP; cell membrane protein extracts of U251 cells (untreated, vector or pro-CDH2 transfected); 2 ug first antibody, protein A+G agarose, three washes with lysis buffer, western blot; the precipitating antibody is not told for Figure 3C, D; proN-cadherin antibody for Figure 6
[2] = molecular target: precursor N-cadherin (proN-cadherin) (human (endogenous in U251)) (UniProt P19022); assay: co-IP; data not shown: immunoprecipitation of proN-cadherin from U251 cells with or without GDNF, western blot for β-catenin and p120-catenin
[3] = molecular target: precursor N-cadherin (proN-cadherin), over-expressed from the vector EF1A-proCDH2-IRES-EGFP (human) (UniProt P19022); assay: co-IP; cell membrane protein extracts of U251 cells (untreated, vector or pro-CDH2 transfected); 2 ug first antibody, protein A+G agarose, three washes with lysis buffer, western blot; the precipitating antibody is not told for Figure 3C, D; proN-cadherin antibody for Figure 6
[4] = molecular target: precursor N-cadherin (proN-cadherin) (human (endogenous in U251)) (UniProt P19022); assay: as above; remark: listed apart in the source

Protein sequences, listed by entry. Tags and fused reporters are not part of them. Residues count along the entry.
UniProt P19022, residues 26-906: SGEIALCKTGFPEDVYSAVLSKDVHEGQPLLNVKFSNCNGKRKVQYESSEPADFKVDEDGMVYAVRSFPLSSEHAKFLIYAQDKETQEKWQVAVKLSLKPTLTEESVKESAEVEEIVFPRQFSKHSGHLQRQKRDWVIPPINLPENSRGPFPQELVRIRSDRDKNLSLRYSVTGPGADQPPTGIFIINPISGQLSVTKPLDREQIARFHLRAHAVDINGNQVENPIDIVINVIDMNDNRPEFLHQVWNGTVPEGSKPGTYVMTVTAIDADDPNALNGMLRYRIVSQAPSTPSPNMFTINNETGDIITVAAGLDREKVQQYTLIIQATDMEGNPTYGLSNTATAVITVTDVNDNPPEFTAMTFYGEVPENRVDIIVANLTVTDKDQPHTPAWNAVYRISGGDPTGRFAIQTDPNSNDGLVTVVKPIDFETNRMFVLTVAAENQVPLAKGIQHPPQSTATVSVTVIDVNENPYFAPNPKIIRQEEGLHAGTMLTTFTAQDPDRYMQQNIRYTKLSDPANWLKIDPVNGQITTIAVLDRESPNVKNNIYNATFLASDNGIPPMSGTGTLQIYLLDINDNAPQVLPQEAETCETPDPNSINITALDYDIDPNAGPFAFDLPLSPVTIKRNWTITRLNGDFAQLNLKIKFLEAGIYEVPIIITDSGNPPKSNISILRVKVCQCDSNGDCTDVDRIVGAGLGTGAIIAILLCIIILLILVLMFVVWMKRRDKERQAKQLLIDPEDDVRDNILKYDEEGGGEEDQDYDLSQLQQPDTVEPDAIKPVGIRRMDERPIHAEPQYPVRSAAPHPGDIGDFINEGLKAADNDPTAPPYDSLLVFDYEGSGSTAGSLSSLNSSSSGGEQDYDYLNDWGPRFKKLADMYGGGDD
UniProt P35222: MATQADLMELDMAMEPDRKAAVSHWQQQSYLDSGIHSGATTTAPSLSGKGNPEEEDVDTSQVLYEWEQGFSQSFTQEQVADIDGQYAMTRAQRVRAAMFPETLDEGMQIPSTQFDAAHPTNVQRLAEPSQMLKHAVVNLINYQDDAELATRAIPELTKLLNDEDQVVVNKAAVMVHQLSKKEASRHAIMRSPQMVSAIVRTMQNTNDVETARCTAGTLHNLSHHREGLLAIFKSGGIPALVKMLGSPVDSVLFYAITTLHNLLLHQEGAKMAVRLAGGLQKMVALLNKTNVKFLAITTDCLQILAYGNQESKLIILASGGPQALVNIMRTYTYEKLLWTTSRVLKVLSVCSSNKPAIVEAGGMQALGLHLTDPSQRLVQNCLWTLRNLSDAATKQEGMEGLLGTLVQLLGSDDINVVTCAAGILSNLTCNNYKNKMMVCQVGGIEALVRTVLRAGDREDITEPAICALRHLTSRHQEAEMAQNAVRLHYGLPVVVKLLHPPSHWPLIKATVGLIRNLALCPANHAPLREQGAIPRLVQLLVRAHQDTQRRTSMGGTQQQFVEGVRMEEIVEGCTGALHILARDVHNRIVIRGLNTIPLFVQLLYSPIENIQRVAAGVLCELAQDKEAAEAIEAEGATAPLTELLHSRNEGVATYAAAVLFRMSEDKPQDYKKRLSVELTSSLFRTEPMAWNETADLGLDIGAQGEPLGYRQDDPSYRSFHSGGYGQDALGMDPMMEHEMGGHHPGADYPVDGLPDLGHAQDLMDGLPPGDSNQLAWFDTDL

| binding [1] | binding [2] | binding [3] | binding [4] | Molecule |
| --- | --- | --- | --- | --- |
| binds | binds | – | – | β-catenin (from UniProt P35222 1-781) |
| – | binds | – | – | p120-catenin (protein, UniProt O60716 1-968) MDDSEVESTASILASVKEQEAQFEKLTRALEEERRHVSAQLERVRVSPQDANPLMANGTLTRRHQNGRFVGDADLERQKFSDLKLNGPQDHSHLLYSTIPRMQEPGQIVETYTEEDPEGAMSVVSVETSDDGTTRRTETTVKKVVKTVTTRTVQPVAMGPDGLPVDASSVSNNYIQTLGRDFRKNGNGGPGPYVGQAGTATLPRNFHYPPDGYSRHYEDGYPGGSDNYGSLSRVTRIEERYRPSMEGYRAPSRQDVYGPQPQVRVGGSSVDLHRFHPEPYGLEDDQRSMGYDDLDYGMMSDYGTARRTGTPSDPRRRLRSYEDMIGEEVPSDQYYWAPLAQHERGSLASLDSLRKGGPPPPNWRQPELPEVIAMLGFRLDAVKSNAAAYLQHLCYRNDKVKTDVRKLKGIPVLVGLLDHPKKEVHLGACGALKNISFGRDQDNKIAIKNCDGVPALVRLLRKARDMDLTEVITGTLWNLSSHDSIKMEIVDHALHALTDEVIIPHSGWEREPNEDCKPRHIEWESVLTNTAGCLRNVSSERSEARRKLRECDGLVDALIFIVQAEIGQKDSDSKLVENCVCLLRNLSYQVHREIPQAERYQEAAPNVANNTGPHAASCFGAKKGKDEWFSRGKKPIEDPANDTVDFPKRTSPARGYELLFQPEVVRIYISLLKESKTPAILEASAGAIQNLCAGRWTYGRYIRSALRQEKALSAIADLLTNEHERVVKAASGALRNLAVDARNKELIGKHAIPNLVKNLPGGQQNSSWNFSEDTVISILNTINEVIAENLEAAKKLRETQGIEKLVLINKSGNRSEKEVRAAALVLQTIWGYKELRKPLEKEGWKKSDFQVNLNNASRSQSSHSYDDSTLPLIDRNQKSDKKPDREEIQMSNMGSNTKSLDNNYSTPNERGDHNRTLDRSGDLGDMEPLKGTTPLMQDEGQESLEEELDVLVLDDEGGQVSYPSMQKI |
| – | – | binds | binds | glial cell line-derived neurotrophic factor (GDNF) (ligand, UniProt P39905 78-211) SPDKQMAVLPRRERNRQAAAANPENSRGKGRRGQRGKNRGCVLTAIHLNVTDLGLGYETKEELIFRYCSGSCDAAETTYDKILKNLSRNRRLVSDKVGQACCRPIAFDDDLSFLDDNLVYHILRKHSAKRCGCI |
